# The supplement of paper PMC11732987, “Enantioselective OTUD7B fragment discovery through chemoproteomics screening and high-throughput optimisation” (Communications Chemistry, 2025)
# Chains of the proteins cited; added tags and fusions are not shown. Lines headed by an entry give the natural chain unless they say otherwise; changes in a name come on top. Residues count along the entry.
# UniProt O95793: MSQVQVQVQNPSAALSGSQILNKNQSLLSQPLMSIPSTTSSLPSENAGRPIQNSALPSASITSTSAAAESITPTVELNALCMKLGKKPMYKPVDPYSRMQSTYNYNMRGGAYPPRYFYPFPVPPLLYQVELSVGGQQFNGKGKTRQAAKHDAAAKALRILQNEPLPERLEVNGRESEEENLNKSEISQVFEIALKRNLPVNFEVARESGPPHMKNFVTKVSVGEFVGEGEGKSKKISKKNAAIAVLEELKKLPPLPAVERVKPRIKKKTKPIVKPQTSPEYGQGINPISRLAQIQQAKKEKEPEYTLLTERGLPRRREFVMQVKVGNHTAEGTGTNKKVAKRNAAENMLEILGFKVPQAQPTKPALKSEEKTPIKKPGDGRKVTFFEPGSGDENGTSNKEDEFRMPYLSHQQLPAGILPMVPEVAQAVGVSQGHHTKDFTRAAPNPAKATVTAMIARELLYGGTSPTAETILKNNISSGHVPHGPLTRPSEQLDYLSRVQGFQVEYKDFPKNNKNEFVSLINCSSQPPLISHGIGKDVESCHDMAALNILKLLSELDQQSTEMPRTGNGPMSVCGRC
# UniProt Q8N300: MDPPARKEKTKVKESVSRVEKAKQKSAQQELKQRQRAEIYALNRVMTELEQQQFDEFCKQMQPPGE
# UniProt Q13586, 31-50: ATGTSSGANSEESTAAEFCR
# UniProt Q9BYT3: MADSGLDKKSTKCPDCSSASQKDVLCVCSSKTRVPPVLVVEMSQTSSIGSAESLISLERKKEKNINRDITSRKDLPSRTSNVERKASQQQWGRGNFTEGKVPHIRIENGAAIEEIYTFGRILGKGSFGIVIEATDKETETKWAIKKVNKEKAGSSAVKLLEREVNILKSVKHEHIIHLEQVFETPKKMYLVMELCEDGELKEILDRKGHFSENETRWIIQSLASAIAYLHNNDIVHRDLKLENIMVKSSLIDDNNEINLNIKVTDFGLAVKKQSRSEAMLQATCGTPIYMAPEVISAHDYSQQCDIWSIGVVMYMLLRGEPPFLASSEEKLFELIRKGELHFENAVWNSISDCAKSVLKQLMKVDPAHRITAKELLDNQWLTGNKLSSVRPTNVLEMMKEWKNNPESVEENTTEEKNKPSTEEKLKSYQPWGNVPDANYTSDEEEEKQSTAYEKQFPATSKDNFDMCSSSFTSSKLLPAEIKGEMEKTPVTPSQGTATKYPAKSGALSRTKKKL
# UniProt Q15468: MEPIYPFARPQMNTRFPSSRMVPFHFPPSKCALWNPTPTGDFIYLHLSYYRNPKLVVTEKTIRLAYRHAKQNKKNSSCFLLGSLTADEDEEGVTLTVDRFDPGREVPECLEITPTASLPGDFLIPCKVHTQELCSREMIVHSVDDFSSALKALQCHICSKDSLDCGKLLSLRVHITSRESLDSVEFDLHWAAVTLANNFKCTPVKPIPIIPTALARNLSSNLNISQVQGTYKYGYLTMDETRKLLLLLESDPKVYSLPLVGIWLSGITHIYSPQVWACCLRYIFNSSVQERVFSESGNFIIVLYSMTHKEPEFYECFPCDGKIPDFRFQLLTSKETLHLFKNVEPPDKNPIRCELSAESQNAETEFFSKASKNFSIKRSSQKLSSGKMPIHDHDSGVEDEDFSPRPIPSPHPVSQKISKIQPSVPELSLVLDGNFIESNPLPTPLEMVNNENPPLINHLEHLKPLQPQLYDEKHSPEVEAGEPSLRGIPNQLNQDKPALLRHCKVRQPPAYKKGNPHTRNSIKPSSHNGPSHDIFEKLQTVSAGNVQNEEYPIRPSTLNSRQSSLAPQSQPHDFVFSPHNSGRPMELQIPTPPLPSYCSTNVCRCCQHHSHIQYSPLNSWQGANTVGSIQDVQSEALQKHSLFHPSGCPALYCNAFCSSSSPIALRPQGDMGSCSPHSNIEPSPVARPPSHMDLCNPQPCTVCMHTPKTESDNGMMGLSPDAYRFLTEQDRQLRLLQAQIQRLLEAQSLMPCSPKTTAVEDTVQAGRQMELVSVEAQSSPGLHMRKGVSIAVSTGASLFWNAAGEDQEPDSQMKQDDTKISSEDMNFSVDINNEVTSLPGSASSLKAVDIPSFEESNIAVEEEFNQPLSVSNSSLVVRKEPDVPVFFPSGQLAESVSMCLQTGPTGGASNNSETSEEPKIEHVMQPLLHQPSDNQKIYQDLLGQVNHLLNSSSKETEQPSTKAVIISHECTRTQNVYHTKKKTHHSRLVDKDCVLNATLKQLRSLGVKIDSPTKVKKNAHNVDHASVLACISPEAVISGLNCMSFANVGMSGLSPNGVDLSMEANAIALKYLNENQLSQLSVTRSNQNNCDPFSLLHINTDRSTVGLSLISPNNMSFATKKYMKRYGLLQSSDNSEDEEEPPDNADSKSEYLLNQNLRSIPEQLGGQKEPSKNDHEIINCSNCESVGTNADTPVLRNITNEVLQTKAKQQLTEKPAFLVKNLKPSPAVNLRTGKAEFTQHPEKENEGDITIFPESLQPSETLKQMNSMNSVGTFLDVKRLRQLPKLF
# UniProt Q658P3: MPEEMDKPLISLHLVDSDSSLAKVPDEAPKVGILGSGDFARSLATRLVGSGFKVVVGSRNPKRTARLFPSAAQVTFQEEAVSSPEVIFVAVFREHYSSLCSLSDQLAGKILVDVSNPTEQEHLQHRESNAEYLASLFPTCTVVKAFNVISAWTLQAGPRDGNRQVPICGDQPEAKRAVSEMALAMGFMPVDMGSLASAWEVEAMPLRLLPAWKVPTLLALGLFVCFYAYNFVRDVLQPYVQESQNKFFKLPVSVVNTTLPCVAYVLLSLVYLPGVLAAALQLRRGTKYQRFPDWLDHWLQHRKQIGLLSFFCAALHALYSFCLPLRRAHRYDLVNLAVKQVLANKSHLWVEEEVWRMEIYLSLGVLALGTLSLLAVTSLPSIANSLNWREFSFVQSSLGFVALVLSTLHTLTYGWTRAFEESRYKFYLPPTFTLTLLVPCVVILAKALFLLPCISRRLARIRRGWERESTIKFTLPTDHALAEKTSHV
# UniProt O15020: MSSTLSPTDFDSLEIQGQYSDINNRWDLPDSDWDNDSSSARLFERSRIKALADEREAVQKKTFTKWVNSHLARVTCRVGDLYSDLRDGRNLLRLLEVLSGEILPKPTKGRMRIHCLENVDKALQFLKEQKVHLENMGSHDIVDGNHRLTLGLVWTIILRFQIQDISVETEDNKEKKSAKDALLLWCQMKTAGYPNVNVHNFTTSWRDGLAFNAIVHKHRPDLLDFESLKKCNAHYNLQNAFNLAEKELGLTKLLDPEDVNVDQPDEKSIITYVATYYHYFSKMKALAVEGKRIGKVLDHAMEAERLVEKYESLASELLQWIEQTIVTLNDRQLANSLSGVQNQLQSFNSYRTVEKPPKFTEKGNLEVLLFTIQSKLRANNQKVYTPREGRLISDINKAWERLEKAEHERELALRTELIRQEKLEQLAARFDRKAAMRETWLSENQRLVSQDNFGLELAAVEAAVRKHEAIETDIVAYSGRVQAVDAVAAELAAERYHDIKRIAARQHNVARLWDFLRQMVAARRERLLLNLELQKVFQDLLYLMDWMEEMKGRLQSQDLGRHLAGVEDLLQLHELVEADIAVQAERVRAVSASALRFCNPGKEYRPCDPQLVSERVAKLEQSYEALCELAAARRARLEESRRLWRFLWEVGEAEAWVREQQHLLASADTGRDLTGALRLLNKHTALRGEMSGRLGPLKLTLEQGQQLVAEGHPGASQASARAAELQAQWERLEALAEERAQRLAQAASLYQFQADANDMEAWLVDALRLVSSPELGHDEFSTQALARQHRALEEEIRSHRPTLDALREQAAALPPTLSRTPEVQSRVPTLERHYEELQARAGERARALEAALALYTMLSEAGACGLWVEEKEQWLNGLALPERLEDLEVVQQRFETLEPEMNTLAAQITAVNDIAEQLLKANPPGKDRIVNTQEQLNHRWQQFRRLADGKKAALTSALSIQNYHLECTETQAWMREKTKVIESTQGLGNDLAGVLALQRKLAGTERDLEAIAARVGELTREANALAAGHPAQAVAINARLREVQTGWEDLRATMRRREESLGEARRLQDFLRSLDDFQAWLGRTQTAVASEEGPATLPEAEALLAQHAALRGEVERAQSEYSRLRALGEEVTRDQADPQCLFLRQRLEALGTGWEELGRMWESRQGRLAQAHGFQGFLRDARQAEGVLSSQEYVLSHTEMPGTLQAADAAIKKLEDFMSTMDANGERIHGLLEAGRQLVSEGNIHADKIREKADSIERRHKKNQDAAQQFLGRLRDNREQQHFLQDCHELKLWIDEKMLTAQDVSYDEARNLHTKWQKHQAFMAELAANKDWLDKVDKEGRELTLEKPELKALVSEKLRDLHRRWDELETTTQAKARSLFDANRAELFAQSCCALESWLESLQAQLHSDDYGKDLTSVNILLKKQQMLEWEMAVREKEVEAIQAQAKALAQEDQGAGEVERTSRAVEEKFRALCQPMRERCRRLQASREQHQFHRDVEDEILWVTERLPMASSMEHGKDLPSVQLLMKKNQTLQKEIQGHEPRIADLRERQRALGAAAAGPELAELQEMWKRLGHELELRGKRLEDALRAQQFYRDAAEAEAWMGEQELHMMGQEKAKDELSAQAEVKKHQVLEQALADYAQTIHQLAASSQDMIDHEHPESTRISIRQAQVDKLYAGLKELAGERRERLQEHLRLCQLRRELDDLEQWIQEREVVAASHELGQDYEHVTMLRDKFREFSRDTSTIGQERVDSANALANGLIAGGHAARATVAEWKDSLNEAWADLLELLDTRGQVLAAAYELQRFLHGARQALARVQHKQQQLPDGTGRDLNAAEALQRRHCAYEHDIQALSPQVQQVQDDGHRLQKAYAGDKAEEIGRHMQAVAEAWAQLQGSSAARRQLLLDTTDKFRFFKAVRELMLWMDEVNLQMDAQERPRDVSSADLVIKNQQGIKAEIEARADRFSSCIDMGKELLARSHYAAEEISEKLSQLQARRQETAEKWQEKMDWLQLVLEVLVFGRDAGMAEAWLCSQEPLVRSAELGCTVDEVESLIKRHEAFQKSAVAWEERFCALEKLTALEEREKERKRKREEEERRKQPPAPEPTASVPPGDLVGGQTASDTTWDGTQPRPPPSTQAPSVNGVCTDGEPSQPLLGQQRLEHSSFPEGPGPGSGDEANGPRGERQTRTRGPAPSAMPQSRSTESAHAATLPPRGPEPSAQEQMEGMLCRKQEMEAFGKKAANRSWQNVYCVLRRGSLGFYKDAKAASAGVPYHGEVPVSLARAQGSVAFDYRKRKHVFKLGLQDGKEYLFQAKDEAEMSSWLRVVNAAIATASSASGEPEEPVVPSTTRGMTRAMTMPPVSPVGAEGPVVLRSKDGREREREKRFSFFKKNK
# UniProt Q9Y5M8: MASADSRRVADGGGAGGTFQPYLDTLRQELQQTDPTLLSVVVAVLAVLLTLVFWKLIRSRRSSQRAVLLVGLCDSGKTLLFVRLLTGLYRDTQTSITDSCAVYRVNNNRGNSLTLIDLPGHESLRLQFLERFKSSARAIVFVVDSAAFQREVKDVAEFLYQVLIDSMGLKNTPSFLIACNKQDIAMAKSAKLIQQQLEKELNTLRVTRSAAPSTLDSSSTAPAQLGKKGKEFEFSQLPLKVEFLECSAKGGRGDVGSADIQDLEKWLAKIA
# UniProt P19623, 114-135: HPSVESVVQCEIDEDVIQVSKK
# UniProt O60506: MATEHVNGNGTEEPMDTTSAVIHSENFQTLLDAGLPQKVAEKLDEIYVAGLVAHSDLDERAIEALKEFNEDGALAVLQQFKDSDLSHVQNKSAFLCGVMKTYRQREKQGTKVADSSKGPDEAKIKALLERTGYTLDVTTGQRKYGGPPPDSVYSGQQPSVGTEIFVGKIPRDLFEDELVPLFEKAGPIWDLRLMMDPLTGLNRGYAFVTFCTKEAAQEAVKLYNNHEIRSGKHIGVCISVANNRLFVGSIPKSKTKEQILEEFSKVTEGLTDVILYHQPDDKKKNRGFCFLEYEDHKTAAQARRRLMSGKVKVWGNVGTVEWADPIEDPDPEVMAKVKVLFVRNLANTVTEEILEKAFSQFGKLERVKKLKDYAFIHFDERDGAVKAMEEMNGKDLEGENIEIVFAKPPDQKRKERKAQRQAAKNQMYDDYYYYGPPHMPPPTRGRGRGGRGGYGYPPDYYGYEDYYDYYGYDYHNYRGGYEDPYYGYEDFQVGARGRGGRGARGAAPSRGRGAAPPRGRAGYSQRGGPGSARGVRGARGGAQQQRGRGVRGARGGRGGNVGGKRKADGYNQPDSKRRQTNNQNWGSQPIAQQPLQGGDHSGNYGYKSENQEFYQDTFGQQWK
# UniProt Q8WXA9, 483-504: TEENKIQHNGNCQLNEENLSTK
# UniProt Q8NBJ7: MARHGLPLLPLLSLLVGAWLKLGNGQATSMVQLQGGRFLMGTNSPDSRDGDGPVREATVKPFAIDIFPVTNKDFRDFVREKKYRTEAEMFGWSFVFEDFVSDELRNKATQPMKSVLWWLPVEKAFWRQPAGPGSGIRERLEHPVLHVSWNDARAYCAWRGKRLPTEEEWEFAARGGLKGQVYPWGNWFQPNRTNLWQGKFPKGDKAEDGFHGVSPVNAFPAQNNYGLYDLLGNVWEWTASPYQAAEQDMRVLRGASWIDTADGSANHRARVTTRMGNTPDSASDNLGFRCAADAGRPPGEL
# Some of the results follow. The data scatter; read single values as rough.
# Compound: ClCC(=O)N[C@@H]1CCCc2ccccc12
# Assay: log2 mean competition ratio of IA-DTB cysteine labelling (DMSO/compound) (log2 ratio); higher = stronger cysteine engagement by compound
# Details: 50 µM; treatment time: 4 h; cell line lysate: HEK293T
# Experimental: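 IA-DTB competitive cysteine chemoproteomics in HEK293T RIPA lysate. Lysates were treated with compound 29 or 30 at 50 or 200 µM for 4 h, then IA-DTB (500 µM, 1 h), trypsin-digested, NeutrAvidin-enriched and analysed by diaPASEF. Competition ratio = intensity DMSO / intensity compound (n=4 treated, n=64 DMSO); binding: mean log2 CR ≥ 1 and p ≤ 0.05 plus QC filters. Target is the cysteine site.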
row,Target,log2 mean competition ratio
1,STAU1 C574 (UniProt O95793),-0.017
2,SYNE2 C1235 (UniProt Q8WXH0),0.193
3,SSH1 C564,0.425
4,SUPT20H C48 (UniProt Q8NEM7),-0.217
5,SUGT1 C88 (UniProt Q9Y2Z0),0.255
6,SVBP C58 (UniProt Q8N300),0.0387
7,STK38 C9 (UniProt Q15208),-0.203
8,SYNE3 C51,-0.304
9,SYNE2 C2212 (UniProt Q8WXH0),-0.0435

# Same assay, conditions: 200 µM; treatment time: 4 h; cell line lysate: HEK293T
row,Target,log2 mean competition ratio
1,SPATA2 C41,0.0891
2,STIM1 C49 (UniProt Q13586),0.248
3,SRBD1 C294 (UniProt Q8N5C6),0.0174
4,STK24 C394,-0.0803
5,STON1 C328 (UniProt Q9Y6Q2),-0.143
6,STK33 C467 (UniProt Q9BYT3),-0.428
7,STIL C752 (UniProt Q15468),0.0653
8,STIM2 C426 (UniProt Q9P246),-0.0327
9,STEAP3 C168 (UniProt Q658P3),0.0586
10,SUPT5H C626 (UniProt O00267),0.864
11,SPPL2A C503 (UniProt Q8TCT8),-0.0627
12,SPTBN2 C2043 (UniProt O15020),-0.174
13,STIP1 C62,0.101
14,SRPRB C179 (UniProt Q9Y5M8),0.122
15,SRM C123 (UniProt P19623),-0.131
16,SYNCRIP C289 (UniProt O60506),0.085
17,SREK1 C494 (UniProt Q8WXA9),0.0883
18,SPATA5 C459 (UniProt Q8NB90),0.911
19,SUCO C315 (UniProt Q9UBS9),0.0339
20,SUMF2 C290 (UniProt Q8NBJ7),0.278

# In another format: results already given.
row | Target | log2 mean competition ratio
1 | SPATA2 C41 | 0.0891
2 | STIM1 C49 (UniProt Q13586) | 0.248
